Data from the supplement of paper PMC10849652.
The list shows a part of the results.

The chains behind the UniProt entries cited, without tags or fusion partners. Where a name states a change or a piece, a line headed by the entry shows the natural chain unless it says otherwise.
UniProt Q96A65: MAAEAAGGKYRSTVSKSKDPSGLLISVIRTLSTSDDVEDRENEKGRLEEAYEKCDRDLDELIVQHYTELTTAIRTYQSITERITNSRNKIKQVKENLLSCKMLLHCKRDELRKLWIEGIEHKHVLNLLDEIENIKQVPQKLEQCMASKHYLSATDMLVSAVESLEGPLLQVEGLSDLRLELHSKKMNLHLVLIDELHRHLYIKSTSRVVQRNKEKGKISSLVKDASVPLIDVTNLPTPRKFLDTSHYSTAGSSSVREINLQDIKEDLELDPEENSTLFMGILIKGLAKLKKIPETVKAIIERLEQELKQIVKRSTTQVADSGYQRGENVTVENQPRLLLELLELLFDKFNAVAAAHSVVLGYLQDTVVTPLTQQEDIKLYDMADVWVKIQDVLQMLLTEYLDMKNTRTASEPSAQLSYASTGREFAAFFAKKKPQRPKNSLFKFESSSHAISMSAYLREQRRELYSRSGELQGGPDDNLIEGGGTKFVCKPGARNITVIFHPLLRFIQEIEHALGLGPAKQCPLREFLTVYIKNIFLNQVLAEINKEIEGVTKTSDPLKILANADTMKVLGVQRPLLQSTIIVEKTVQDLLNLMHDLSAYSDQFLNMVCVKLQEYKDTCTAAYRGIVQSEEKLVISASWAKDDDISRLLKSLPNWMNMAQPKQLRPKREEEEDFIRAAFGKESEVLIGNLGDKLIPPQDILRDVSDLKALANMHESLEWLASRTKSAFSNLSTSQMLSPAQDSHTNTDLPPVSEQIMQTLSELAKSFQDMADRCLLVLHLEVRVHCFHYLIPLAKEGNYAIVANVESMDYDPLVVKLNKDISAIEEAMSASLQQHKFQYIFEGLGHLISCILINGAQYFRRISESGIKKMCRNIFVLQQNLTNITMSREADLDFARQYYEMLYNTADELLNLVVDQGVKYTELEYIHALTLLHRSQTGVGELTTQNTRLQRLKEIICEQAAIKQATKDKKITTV
UniProt Q8IUD2: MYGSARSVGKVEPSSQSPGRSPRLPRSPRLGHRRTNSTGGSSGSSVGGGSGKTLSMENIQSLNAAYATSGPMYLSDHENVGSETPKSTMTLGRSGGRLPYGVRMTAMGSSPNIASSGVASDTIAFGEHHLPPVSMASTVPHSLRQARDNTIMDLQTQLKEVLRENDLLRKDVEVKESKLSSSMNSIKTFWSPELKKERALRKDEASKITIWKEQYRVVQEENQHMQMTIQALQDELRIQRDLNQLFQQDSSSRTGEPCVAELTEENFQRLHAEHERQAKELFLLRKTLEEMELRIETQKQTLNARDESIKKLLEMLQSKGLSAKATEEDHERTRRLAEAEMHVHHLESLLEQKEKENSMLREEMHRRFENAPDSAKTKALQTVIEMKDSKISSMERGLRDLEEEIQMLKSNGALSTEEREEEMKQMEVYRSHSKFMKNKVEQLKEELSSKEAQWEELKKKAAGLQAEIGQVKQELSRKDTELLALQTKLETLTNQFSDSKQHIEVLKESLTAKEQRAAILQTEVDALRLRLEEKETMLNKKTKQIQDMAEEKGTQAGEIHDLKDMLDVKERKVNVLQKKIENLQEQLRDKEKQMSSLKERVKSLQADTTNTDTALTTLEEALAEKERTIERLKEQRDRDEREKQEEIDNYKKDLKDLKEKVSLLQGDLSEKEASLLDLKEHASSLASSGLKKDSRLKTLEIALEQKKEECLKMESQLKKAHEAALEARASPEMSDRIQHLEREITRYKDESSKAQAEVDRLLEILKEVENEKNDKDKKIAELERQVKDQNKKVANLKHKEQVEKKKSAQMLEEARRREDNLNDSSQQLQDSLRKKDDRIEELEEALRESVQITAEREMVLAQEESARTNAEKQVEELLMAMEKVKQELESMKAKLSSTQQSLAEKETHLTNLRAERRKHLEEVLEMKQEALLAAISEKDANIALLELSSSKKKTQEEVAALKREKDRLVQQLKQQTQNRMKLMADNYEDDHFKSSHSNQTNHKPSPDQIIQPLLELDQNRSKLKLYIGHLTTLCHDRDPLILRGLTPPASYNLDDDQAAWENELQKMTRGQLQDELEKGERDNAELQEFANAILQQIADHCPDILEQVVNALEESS
UniProt Q9Y624, whole entry, looked up, stated change not applied: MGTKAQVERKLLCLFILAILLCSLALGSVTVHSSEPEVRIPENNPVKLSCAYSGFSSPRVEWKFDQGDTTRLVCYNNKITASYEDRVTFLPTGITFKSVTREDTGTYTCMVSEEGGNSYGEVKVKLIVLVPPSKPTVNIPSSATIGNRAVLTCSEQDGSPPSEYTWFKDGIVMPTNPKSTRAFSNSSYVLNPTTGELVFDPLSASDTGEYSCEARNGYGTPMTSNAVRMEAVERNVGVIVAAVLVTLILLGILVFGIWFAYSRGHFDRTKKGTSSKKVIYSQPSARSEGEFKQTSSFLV
UniProt Q8IYI6: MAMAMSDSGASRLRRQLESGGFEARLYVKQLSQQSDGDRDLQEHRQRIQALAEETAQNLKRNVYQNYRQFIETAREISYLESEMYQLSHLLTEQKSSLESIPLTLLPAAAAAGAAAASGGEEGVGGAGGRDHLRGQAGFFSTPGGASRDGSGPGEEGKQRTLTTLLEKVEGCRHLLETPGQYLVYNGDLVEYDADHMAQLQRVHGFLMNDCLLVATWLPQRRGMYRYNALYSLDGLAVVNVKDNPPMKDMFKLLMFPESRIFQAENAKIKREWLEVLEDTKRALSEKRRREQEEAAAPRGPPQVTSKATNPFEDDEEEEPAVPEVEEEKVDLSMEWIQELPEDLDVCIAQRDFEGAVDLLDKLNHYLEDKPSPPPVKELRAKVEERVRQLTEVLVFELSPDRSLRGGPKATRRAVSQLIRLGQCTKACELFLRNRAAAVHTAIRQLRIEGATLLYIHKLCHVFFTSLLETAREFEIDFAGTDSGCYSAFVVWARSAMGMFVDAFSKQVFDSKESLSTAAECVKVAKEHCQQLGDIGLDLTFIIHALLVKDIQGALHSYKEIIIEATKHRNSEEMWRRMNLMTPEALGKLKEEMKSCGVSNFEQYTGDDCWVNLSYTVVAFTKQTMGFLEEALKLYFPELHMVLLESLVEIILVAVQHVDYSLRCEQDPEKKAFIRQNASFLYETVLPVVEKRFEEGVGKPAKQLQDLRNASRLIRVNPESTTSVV
UniProt Q5BKY9: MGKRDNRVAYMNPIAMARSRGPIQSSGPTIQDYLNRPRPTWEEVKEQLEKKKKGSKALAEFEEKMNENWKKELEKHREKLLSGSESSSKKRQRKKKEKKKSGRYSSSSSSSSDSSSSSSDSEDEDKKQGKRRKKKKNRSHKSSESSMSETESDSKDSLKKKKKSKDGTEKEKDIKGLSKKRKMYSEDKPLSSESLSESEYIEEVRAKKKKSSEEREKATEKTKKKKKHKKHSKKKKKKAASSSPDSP
UniProt Q9NPD3, whole entry, looked up: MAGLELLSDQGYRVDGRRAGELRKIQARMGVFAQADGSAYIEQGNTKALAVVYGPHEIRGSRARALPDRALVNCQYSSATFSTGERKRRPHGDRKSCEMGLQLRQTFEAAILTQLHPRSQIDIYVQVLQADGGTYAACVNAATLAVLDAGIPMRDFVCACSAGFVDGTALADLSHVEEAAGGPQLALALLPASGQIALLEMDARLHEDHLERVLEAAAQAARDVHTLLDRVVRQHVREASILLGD
UniProt Q9Y6I3: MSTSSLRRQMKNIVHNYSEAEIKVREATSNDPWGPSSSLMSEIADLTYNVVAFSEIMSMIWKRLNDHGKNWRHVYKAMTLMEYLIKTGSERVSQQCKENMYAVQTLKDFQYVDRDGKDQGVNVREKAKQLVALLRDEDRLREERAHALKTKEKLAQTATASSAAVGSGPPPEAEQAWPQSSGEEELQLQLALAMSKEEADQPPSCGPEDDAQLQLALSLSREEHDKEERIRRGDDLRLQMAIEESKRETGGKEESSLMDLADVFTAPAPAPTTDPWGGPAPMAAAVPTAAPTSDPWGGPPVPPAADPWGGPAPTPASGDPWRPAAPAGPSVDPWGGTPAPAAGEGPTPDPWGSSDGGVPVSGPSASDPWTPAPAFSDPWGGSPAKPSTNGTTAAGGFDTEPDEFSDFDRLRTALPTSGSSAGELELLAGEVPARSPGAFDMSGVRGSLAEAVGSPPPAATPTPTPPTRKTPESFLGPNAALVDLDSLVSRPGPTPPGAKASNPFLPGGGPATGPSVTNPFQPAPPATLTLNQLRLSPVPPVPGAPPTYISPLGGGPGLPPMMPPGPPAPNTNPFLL
UniProt Q93063: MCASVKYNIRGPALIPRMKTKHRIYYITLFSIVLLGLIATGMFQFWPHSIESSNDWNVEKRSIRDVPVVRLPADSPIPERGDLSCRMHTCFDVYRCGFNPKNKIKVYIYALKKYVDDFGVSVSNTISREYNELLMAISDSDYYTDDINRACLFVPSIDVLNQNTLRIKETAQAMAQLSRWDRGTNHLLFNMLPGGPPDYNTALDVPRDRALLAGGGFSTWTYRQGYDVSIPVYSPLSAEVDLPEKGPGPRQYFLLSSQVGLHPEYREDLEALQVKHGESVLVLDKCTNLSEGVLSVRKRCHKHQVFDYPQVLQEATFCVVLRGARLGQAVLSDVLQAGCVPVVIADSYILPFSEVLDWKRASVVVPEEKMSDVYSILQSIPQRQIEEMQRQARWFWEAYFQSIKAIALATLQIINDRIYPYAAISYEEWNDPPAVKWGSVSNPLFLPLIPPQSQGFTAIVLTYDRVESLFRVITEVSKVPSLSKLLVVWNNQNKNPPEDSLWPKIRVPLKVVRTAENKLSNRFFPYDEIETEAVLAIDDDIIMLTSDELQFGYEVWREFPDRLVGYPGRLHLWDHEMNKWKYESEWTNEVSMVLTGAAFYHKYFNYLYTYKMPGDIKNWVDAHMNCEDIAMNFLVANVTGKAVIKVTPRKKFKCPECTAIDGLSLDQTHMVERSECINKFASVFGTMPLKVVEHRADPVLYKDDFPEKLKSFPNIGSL
UniProt Q96A26: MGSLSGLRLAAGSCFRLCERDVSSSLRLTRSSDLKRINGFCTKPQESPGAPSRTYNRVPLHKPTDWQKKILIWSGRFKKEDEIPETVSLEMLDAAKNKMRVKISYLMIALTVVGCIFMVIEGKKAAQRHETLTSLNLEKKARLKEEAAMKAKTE
UniProt O00471: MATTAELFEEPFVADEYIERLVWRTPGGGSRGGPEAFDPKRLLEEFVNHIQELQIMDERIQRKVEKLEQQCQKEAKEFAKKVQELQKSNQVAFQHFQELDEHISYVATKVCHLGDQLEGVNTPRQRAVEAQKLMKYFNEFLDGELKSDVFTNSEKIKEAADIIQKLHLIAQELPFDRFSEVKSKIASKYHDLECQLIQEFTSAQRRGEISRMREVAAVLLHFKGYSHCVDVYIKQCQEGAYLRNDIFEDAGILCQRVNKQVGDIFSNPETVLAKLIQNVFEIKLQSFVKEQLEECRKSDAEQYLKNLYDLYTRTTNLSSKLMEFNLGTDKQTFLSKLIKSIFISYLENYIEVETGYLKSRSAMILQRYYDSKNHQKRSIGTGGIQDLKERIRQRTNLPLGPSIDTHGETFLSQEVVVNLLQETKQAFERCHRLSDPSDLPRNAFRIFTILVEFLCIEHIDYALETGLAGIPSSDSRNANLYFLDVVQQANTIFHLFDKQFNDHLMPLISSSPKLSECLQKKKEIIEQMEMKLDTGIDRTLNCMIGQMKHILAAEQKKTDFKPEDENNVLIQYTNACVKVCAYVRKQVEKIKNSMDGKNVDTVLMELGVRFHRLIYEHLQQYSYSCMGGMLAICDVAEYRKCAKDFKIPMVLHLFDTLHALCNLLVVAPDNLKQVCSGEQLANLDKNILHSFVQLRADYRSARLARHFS
UniProt Q9Y282: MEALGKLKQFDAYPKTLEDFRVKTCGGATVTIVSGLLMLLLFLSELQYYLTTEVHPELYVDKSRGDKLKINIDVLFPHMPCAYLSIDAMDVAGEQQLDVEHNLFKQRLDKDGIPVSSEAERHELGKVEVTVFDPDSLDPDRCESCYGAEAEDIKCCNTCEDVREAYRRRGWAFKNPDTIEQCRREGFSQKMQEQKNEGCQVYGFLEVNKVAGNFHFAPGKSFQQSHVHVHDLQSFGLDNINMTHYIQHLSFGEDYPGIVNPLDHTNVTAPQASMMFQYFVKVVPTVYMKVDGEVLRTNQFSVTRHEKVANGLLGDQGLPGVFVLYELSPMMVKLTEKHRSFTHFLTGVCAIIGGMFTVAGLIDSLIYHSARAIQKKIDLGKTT
UniProt Q13868, whole entry, looked up: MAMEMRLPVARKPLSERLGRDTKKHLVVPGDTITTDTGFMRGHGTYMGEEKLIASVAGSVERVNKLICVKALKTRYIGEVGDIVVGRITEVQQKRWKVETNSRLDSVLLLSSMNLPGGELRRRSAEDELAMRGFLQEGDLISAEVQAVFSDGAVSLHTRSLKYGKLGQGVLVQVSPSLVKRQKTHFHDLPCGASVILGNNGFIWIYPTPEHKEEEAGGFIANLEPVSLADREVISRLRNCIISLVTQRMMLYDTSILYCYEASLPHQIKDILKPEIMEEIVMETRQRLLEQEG

Legend:
Experiment in all cases: log2 fold change, soluble protein after heating vs DMSO (PISA); higher = thermal stabilisation; K562 cells, 10 uM, 30 min; active = over 0.2 and 3.5 SD of the protein, either way, in both replicates (recomputed)
bafetinib = compound: Cc1ccc(NC(=O)c2ccc(CN3CC[C@H](N(C)C)C3)c(C(F)(F)F)c2)cc1Nc1nccc(-c2cncnc2)n1 [bafetinib]
Outline: (§1)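 K562 cells at 2×10^6 cells/mL were exposed to 10 μM compound for 30 min, then aliquots were heated for 3 min across 48°C-58°C, pooled, and extracted in PBS containing 0.5% NP-40 at 4°C. The supernatant after 21,000xg for 90 min was taken as soluble protein and measured by TMTpro 16plex LC-MS/MS with channel sums equalised. Thermal stability is reported relative to control samples, with values from duplicates. Fold changes are given on a log2 scale.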

[1] = compound: Cc1cccc(CC(=O)N2CCc3c2ccc(-c2cn(C)c4ncnc(N)c24)c3F)n1
Outline: as §1

nilotinib = compound: Cc1cn(-c2cc(NC(=O)c3ccc(C)c(Nc4nccc(-c5cccnc5)n4)c3)cc(C(F)(F)F)c2)cn1 [nilotinib]
Outline: as §1

[2] = compound: Cc1nc(Nc2n[nH]c3c2CN(C(=O)N[C@H](CN(C)C)c2ccccc2)C3(C)C)c2sccc2n1
Outline: as §1

dasatinib = compound: Cc1nc(Nc2ncc(C(=O)Nc3c(C)cccc3Cl)s2)cc(N2CCN(CCO)CC2)n1 [dasatinib]
Outline: as §1

[3] = compound: Cc1ncc(-c2ccnc(Nc3ccc(S(C)(=O)=O)cc3)n2)n1C(C)C
Outline: as §1

[4] = compound: Cn1cc(-c2ccc3c(c2)CCN3C(=O)Cc2cccc(C(F)(F)F)c2)c2c(N)ncnc21
Outline: as §1

[5] = compound: Cn1cc(-c2ccc3nnc(C(F)(F)c4ccc5ncccc5c4)n3n2)cn1
Outline: as §1

tipifarnib = compound: Cn1cncc1[C@@](N)(c1ccc(Cl)cc1)c1ccc2c(c1)c(-c1cccc(Cl)c1)cc(=O)n2C [tipifarnib]
Outline: as §1

mubritinib = compound: FC(F)(F)c1ccc(/C=C/c2nc(COc3ccc(CCCCn4ccnn4)cc3)co2)cc1 [mubritinib]
Outline: as §1

[6] = compound: NC(=O)Nc1cc(-c2cccc(F)c2)sc1C(=O)N[C@H]1CCCNC1
Outline: as §1

[7] = compound: NC(=O)c1cnc(N[C@@H]2CCCC[C@@H]2N)nc1Nc1cccc(-n2nccn2)c1
Outline: as §1

[8] = compound: NC1(c2ccc(-c3nc4ccn5c(=O)[nH]nc5c4cc3-c3ccccc3)cc2)CCC1
Outline: as §1

[9] = compound: NCC(=O)Nc1ccc(-n2nc(C(F)(F)F)cc2-c2ccc3c(ccc4ccccc43)c2)cc1
Outline: as §1

entinostat = compound: Nc1ccccc1NC(=O)c1ccc(CNC(=O)OCc2cccnc2)cc1 [entinostat]
Outline: as §1

vorinostat = compound: O=C(CCCCCCC(=O)Nc1ccccc1)NO [vorinostat]
Outline: as §1

citarinostat = compound: O=C(CCCCCCNC(=O)c1cnc(N(c2ccccc2)c2ccccc2Cl)nc1)NO [citarinostat]
Outline: as §1

silmitasertib = compound: O=C(O)c1ccc2c(c1)nc(Nc1cccc(Cl)c1)c1ccncc12 [silmitasertib]
Outline: as §1

[10] = compound: O=C1NC(=O)C(c2cnc3ccccn23)=C1c1cn2c3c(cc(F)cc13)CN(C(=O)N1CCCCC1)CC2
Outline: as §1

[11] = compound: c1cc(OCCN2CCCCC2)cc(-c2n[nH]c3ccc(-c4nnc[nH]4)cc23)c1
Outline: as §1

Row | Target | log2 fold change (bafetinib) | log2 fold change [1] | log2 fold change (nilotinib) | log2 fold change [2] | log2 fold change (dasatinib) | log2 fold change [3] | log2 fold change [4] | log2 fold change [5] | log2 fold change (tipifarnib) | log2 fold change (mubritinib) | log2 fold change [6] | log2 fold change [7] | log2 fold change [8] | log2 fold change [9] | log2 fold change (entinostat) | log2 fold change (vorinostat) | log2 fold change (citarinostat) | log2 fold change (silmitasertib) | log2 fold change [10] | log2 fold change [11]
1 | EXOC4 (UniProt Q96A65) | inactive: 0.012 | inactive: 0.11 | inactive: -0.068 | inactive: -0.155 | inactive: -0.15 | inactive: -0.031 | inactive: -0.026 | inactive: 0.013 | inactive: -0.088 | inactive: 0.078 | inactive: 0.081 | inactive: -0.216 | inactive: -0.205 | inactive: -0.051 | inactive: 0.078 | inactive: 0.174 | inactive: 0.16 | inactive: 0.091 | inactive: 0.044 | inactive: -0.094
2 | ERC1 (UniProt Q8IUD2) | inactive: -0.088 | inactive: 0.069 | inactive: 0.102 | inactive: -0.02 | inactive: -0.028 | inactive: -0.094 | inactive: 0.172 | inactive: 0.11 | inactive: -0.035 | inactive: 0.189 | inactive: -0.087 | inactive: -0.209 | inactive: 0.166 | inactive: -0.001 | inactive: -0.016 | inactive: -0.078 | inactive: 0.034 | inactive: -0.11 | inactive: -0.04 | inactive: 0.038
3 | F11R (UniProt Q9Y624) | inactive: 0.037 | inactive: -0.016 | inactive: 0.01 | inactive: 0.011 | inactive: 0.051 | inactive: -0.017 | inactive: 0.012 | inactive: -0.019 | inactive: 0.008 | inactive: 0.071 | inactive: -0.137 | inactive: 0.046 | inactive: 0.045 | inactive: 0.021 | inactive: -0.075 | inactive: -0.013 | inactive: 0.013 | inactive: -0.025 | inactive: -0.076 | inactive: -0.059
4 | EXOC8 (UniProt Q8IYI6) | inactive: -0.081 | inactive: 0.071 | inactive: -0.054 | inactive: -0.137 | inactive: -0.1 | inactive: -0.012 | inactive: -0.015 | inactive: 0.028 | inactive: -0.038 | inactive: 0.039 | inactive: 0.044 | inactive: -0.044 | active: -0.373 | inactive: -0.039 | inactive: 0.108 | inactive: 0.051 | inactive: 0.084 | inactive: 0.035 | inactive: 0.045 | inactive: -0.062
5 | FAM133B (UniProt Q5BKY9) | inactive: -0.075 | inactive: 0.007 | inactive: -0.079 | inactive: -0.048 | inactive: 0.004 | inactive: -0.018 | inactive: -0.037 | inactive: -0.022 | inactive: 0.069 | inactive: -0.044 | inactive: -0.019 | inactive: -0.03 | inactive: 0.033 | inactive: -0.101 | inactive: -0.025 | inactive: -0.004 | inactive: 0.04 | inactive: 0.026 | inactive: 0.005 | inactive: -0.033
6 | ETHE1 (UniProt O95571) | inactive: -0.071 | inactive: 0.104 | inactive: -0.013 | inactive: 0.049 | inactive: 0.023 | inactive: -0.018 | inactive: 0.045 | inactive: -0.028 | inactive: 0.004 | inactive: -0.029 | inactive: -0.04 | inactive: -0.003 | inactive: 0.053 | inactive: 0.004 | inactive: -0.017 | inactive: 0.017 | inactive: -0.002 | inactive: 0.018 | inactive: -0.05 | inactive: -0.02
7 | FAH (UniProt P16930) | inactive: -0.024 | inactive: 0.046 | inactive: 0.008 | inactive: -0.004 | inactive: 0.008 | inactive: -0.011 | inactive: 0.045 | inactive: 0.004 | inactive: -0.017 | inactive: 0.031 | inactive: 0.009 | inactive: -0.041 | inactive: 0.021 | inactive: -0.037 | inactive: -0.018 | inactive: -0.018 | inactive: 0.042 | inactive: -0.002 | inactive: -0.075 | inactive: 0.059
8 | EXOSC4 (UniProt Q9NPD3) | inactive: 0.002 | inactive: 0.043 | inactive: 0.008 | inactive: 0 | inactive: 0.009 | inactive: -0.005 | inactive: 0.001 | inactive: -0.019 | inactive: -0.029 | inactive: 0.014 | inactive: 0.125 | inactive: 0.004 | inactive: 0.023 | inactive: 0.153 | inactive: 0.017 | inactive: 0.03 | inactive: 0.011 | inactive: -0.038 | inactive: 0.037 | inactive: -0.025
9 | F2 (UniProt P00734) | inactive: -0.148 | inactive: 0.087 | inactive: 0.046 | inactive: -0.036 | inactive: 0.016 | inactive: 0.171 | inactive: 0.304 | inactive: 0.206 | inactive: 0.138 | inactive: -0.122 | inactive: -0.043 | inactive: -0.118 | inactive: 0.09 | inactive: -0.015 | inactive: -0.031 | inactive: 0.205 | inactive: -0.02 | inactive: 0.19 | inactive: 0.064 | inactive: 0.173
10 | EPN1 (UniProt Q9Y6I3) | inactive: -0.102 | inactive: 0.006 | inactive: -0.075 | inactive: -0.006 | inactive: -0.064 | inactive: -0.02 | inactive: 0.035 | inactive: 0.005 | inactive: -0.05 | inactive: 0.073 | inactive: 0.055 | inactive: -0.01 | inactive: -0.123 | inactive: -0.026 | inactive: 0.006 | inactive: 0.027 | inactive: 0.039 | inactive: -0.033 | inactive: 0.015 | inactive: -0.043
11 | ERO1A (UniProt Q96HE7) | inactive: -0.023 | inactive: -0.059 | inactive: -0.007 | inactive: 0.001 | inactive: 0.027 | inactive: -0.054 | inactive: -0.044 | inactive: 0.011 | inactive: 0.038 | inactive: -0.06 | inactive: 0 | inactive: -0.037 | inactive: -0.051 | inactive: -0.031 | inactive: 0.013 | inactive: -0.035 | inactive: -0.011 | inactive: 0.015 | inactive: -0.017 | inactive: -0.021
12 | EXT2 isoform 3 (UniProt Q93063) | inactive: 0.004 | inactive: 0.014 | inactive: -0.086 | inactive: 0.076 | inactive: 0.014 | inactive: -0.042 | inactive: -0.082 | inactive: 0.016 | inactive: 0.138 | inactive: -0.048 | inactive: 0.006 | inactive: -0.015 | inactive: -0.125 | inactive: 0.037 | inactive: -0.057 | inactive: -0.008 | inactive: 0.007 | inactive: 0.105 | inactive: 0.094 | inactive: -0.083
13 | FAM162A (UniProt Q96A26) | inactive: -0.004 | inactive: -0.096 | inactive: 0.006 | inactive: 0.015 | inactive: -0.03 | inactive: -0.029 | inactive: 0.035 | inactive: -0.006 | inactive: -0.028 | inactive: -0.024 | inactive: 0.011 | inactive: -0.11 | inactive: -0.025 | inactive: -0.046 | inactive: 0.023 | inactive: -0.087 | inactive: -0.127 | inactive: -0.023 | inactive: 0.018 | inactive: 0.004
14 | EXOC5 (UniProt O00471) | inactive: -0.016 | inactive: 0.061 | inactive: -0.109 | inactive: -0.258 | inactive: -0.1 | inactive: -0.078 | inactive: 0.022 | inactive: 0.026 | inactive: -0.076 | inactive: 0.039 | inactive: 0.01 | inactive: -0.101 | inactive: -0.222 | inactive: -0.063 | inactive: 0.069 | inactive: 0.086 | inactive: 0.027 | inactive: 0.042 | inactive: -0.02 | inactive: -0.153
15 | ERGIC3 isoform 3 (UniProt Q9Y282) | inactive: -0.098 | inactive: -0.024 | inactive: -0.014 | inactive: -0.026 | inactive: 0.005 | inactive: 0.002 | inactive: -0.003 | inactive: 0.015 | inactive: 0.025 | inactive: -0.018 | inactive: 0.026 | inactive: -0.007 | inactive: -0.067 | inactive: 0.049 | inactive: 0.041 | inactive: 0.005 | inactive: 0.038 | inactive: 0.007 | inactive: -0.02 | inactive: -0.043
16 | EXOSC2 (UniProt Q13868) | inactive: 0.012 | inactive: -0.036 | inactive: -0.002 | inactive: 0.045 | inactive: 0.086 | inactive: -0.023 | inactive: -0.018 | inactive: 0.008 | inactive: 0.016 | inactive: 0.013 | inactive: 0.053 | inactive: -0.034 | inactive: 0.013 | inactive: -0.001 | inactive: -0.015 | inactive: -0.041 | inactive: 0.008 | inactive: 0.013 | inactive: 0.062 | inactive: -0.056

Two records drawn at random from those above:
Row | Target | log2 fold change (bafetinib) | log2 fold change [1] | log2 fold change (nilotinib) | log2 fold change [2] | log2 fold change (dasatinib) | log2 fold change [3] | log2 fold change [4] | log2 fold change [5] | log2 fold change (tipifarnib) | log2 fold change (mubritinib) | log2 fold change [6] | log2 fold change [7] | log2 fold change [8] | log2 fold change [9] | log2 fold change (entinostat) | log2 fold change (vorinostat) | log2 fold change (citarinostat) | log2 fold change (silmitasertib) | log2 fold change [10] | log2 fold change [11]
10 | EPN1 (UniProt Q9Y6I3) | inactive: -0.102 | inactive: 0.006 | inactive: -0.075 | inactive: -0.006 | inactive: -0.064 | inactive: -0.02 | inactive: 0.035 | inactive: 0.005 | inactive: -0.05 | inactive: 0.073 | inactive: 0.055 | inactive: -0.01 | inactive: -0.123 | inactive: -0.026 | inactive: 0.006 | inactive: 0.027 | inactive: 0.039 | inactive: -0.033 | inactive: 0.015 | inactive: -0.043
11 | ERO1A (UniProt Q96HE7) | inactive: -0.023 | inactive: -0.059 | inactive: -0.007 | inactive: 0.001 | inactive: 0.027 | inactive: -0.054 | inactive: -0.044 | inactive: 0.011 | inactive: 0.038 | inactive: -0.06 | inactive: 0 | inactive: -0.037 | inactive: -0.051 | inactive: -0.031 | inactive: 0.013 | inactive: -0.035 | inactive: -0.011 | inactive: 0.015 | inactive: -0.017 | inactive: -0.021
